# Results: article PMC7862700
# By UniProt entry, the sequences of proteins in these tests, tags left out. Where a name states a change or a piece, a line headed by the entry shows the natural chain unless it says otherwise.
# UniProt Q01892: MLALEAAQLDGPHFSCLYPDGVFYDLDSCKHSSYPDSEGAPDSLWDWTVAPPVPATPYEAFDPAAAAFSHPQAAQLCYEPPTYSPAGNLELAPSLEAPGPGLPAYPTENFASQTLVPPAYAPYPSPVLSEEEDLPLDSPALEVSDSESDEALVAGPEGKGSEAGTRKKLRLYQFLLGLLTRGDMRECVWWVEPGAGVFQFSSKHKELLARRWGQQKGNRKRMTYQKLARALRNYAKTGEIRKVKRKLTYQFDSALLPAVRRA
# UniProt P41161: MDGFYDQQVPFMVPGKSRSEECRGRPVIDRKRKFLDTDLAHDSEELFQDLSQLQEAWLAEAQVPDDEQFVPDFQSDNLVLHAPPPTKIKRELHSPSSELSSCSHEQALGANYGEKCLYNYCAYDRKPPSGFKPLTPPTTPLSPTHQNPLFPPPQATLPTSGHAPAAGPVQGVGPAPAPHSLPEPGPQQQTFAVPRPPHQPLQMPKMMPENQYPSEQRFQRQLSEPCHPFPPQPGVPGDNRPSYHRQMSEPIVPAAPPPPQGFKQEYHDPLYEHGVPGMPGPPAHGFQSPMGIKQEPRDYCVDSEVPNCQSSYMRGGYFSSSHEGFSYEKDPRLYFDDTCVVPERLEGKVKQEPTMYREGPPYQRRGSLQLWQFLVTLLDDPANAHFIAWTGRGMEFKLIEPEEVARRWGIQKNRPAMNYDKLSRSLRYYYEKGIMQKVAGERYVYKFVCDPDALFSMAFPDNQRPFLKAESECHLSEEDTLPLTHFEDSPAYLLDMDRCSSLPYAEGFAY
# UniProt Q99607: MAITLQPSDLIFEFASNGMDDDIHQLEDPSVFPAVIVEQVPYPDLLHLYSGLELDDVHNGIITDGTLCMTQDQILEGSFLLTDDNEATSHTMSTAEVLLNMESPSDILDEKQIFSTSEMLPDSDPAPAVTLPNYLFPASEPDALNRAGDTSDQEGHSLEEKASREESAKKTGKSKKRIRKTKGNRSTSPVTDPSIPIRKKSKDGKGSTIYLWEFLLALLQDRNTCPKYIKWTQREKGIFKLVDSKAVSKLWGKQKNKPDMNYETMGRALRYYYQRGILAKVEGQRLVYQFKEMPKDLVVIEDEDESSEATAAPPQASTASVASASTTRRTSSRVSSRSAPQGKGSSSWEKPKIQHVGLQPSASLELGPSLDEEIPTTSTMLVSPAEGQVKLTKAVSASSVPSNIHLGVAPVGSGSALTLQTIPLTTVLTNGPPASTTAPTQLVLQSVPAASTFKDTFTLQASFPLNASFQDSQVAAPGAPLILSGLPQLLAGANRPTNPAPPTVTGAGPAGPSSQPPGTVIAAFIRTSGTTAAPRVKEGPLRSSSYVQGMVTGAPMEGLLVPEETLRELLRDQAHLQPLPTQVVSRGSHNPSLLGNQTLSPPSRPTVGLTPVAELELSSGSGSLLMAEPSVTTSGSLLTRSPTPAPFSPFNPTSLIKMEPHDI
# The entries are a selection whose mix differs from that of the whole data set. For some of these results: At the low end of the ranking the order means little.
# Experiments:
# Experiment in all cases: DAPPL (digital affinity profiling via proximity ligation, sequencing)
# Settings in all cases: 10 mM Tris-HCl pH 7.5, 50 mM NaCl, 1 mM DTT, 4% glycerol, room temperature, 30 min; GST-TFs on glutathione beads, 16-mer random dsDNA library, 0.1% …; high values mean tight binding; double strand, one strand shown; scale: fold enrichment (6-mer frequency, TF over GST control)
# FLI1 = target: T1, FLI1 (UniProt Q01543)
# T1 sequence: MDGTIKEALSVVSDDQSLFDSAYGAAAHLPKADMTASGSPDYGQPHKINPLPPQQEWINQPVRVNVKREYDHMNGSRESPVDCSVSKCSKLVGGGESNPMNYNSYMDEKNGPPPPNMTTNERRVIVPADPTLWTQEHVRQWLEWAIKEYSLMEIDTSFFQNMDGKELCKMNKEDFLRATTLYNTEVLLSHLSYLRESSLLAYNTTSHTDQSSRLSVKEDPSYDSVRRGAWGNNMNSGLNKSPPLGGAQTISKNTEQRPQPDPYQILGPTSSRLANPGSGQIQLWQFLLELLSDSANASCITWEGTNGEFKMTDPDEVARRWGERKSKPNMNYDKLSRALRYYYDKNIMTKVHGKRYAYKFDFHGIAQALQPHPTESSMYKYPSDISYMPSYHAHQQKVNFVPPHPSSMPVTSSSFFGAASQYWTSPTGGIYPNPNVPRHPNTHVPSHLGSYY
# SPIB = SPIB (UniProt Q01892)
# ETV5 = ETV5 (UniProt P41161)
# ELF4 = ELF4 (UniProt Q99607)
# ETV3L = target: T2, ETV3L (UniProt Q6ZN32)
# T2 sequence: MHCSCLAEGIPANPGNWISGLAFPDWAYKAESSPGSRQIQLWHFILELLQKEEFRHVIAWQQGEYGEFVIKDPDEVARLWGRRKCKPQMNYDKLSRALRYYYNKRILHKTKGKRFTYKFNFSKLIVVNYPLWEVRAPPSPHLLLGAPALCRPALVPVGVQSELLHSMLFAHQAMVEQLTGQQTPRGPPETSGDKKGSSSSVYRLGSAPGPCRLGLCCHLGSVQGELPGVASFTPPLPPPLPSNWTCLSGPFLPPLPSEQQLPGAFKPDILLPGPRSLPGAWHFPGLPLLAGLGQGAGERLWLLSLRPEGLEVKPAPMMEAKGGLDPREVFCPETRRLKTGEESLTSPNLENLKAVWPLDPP
# EHF = target: T3, EHF (UniProt Q9NZC4)
# T3 sequence: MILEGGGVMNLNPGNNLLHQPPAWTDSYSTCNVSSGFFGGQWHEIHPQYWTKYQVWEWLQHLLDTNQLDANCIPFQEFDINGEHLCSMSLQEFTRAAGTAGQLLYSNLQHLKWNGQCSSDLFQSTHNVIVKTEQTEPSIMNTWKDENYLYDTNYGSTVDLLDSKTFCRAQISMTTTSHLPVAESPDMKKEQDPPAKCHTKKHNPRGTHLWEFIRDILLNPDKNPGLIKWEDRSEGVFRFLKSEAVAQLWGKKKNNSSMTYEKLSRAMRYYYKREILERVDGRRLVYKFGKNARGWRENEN
# ETV2 = target: T4, ETV2 (UniProt O00321)
# T4 sequence: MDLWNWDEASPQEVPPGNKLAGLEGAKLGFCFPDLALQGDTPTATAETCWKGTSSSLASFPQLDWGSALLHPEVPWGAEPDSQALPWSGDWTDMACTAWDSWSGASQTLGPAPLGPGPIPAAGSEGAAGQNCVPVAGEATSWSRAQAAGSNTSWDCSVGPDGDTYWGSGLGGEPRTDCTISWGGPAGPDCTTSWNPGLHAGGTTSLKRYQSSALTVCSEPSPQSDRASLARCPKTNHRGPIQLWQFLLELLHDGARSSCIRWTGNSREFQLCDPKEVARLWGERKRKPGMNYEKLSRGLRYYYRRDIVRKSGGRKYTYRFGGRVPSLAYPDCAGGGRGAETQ
Sequence,binding signal (FLI1),binding signal (SPIB),binding signal (ETV5),binding signal (ELF4),binding signal (ETV3L),binding signal (EHF),binding signal (ETV2)
GAATGG,0.942,1.06,0.911,0.94,,,
GATACC,0.889,0.924,0.944,0.957,0.937,,
ACCCGT,0.823,0.885,0.91,0.86,0.878,0.934,
AGAATA,0.983,0.972,0.993,1.06,,0.938,
AACGGT,0.969,0.97,0.969,1.03,0.949,0.954,
GTGCCT,0.949,,1.07,0.993,,0.914,
CGAGAT,0.849,0.877,0.86,0.909,0.848,0.917,
GGTTCT,1.07,1.05,0.981,0.993,,0.94,
AGAATG,0.938,0.901,0.941,0.952,0.987,,
CAGTAT,0.889,0.981,0.936,0.987,,0.959,
TGGTCG,0.952,,1.06,0.991,,0.982,
TACCTG,1.13,1.25,1.19,1.14,1.09,,
GGCTTT,0.934,0.934,0.974,0.976,,,
GATTGC,0.892,1.05,0.996,0.986,1.02,,
AGATCA,0.809,0.841,0.827,0.854,0.88,0.92,
AGGTCC,0.995,0.957,0.948,0.907,1.03,,
ATAGAC,0.914,0.956,0.987,1.01,0.987,0.881,
GGCCTG,0.945,0.982,0.882,0.912,,0.783,
ATCAAG,0.932,0.896,0.945,0.934,,0.998,
GGCATT,1.08,0.974,1.05,0.981,,,
ACGTAC,1.24,,1.21,,,,1.32

# Look-ups from the results shown:
# binding signal (ELF4) with GATTGC reads 0.986
# binding signal (ETV5) with CGAGAT reads 0.86
